# Test results: article PMC10739865, “The Mycobacterium tuberculosis methyltransferase Rv2067c manipulates host epigenetic programming to promote its own survival” (Nature Communications, 2023)
# By UniProt entry, the sequences of proteins in these tests, tags left out. Residues count along the entry.
# UniProt P9WMK7, residues 3-216: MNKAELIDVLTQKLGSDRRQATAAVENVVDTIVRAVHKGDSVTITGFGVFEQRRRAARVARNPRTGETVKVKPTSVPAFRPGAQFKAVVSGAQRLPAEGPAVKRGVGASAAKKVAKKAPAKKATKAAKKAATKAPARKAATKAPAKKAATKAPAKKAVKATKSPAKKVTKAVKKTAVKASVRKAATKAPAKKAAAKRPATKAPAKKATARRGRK
# UniProt P9WLL9, residues 2-407: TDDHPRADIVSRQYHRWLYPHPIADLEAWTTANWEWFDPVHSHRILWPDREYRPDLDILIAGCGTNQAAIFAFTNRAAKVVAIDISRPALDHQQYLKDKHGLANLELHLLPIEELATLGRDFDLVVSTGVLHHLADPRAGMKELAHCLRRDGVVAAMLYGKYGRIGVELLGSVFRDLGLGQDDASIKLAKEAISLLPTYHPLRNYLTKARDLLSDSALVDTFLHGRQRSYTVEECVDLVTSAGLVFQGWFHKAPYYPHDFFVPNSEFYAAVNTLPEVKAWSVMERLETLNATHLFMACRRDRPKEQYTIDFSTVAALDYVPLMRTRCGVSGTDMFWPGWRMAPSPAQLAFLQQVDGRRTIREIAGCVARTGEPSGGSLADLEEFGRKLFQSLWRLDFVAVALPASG
# These are yes or no findings as the source states them, for the method shown. In cells and extracts the contact can be indirect. Some binding calls cover weakened binding; strength is not graded here.
# Biological target: Mtb histone-like protein HU (MtHU) (Mycobacterium tuberculosis) (UniProt P9WMK7)
# Assay: pull-down; MtHU as bait; no further details in the text shown (Supplementary Fig. 1a)
substance,measurement,value
Rv2067c (prey found in the MtHU pulldown) (from UniProt P9WLL9 2-407) (enzyme),binding,binds
